# Assay results as given in the supplement of paper PMC8728848.
# The other results are listed elsewhere or left out.
# B1: PX9961KLbvu-535-38-535 (Bacteroides vulgatus) (protein)
# chain: DKAYTDAESYTKGLHKIYSVWALSGQDGSSSSDISGLDAGNTALLRCWWTLQEQPTDEMKNAWNDAWCTEVNYMTWTTNKVEPIEGVYQRCMYIVALVNEFLKNIPNAPESIDKESYIAQARFNRAFAYYVLMDMFALPPFITEKNYSIEPAPLSREDLFNWIEAELNEIKPNLPSPRSEYGVADQAVASALLARMYLNAEIYTGKARYTECINACNEVIKAGYQLADNYADLFKADNGENPDTKKEIIYPIIFDGDKTQSWGMAAIIIGARGAEDKDVLLAHSGVDQGWAGFRATSNLVHLFDFQNDEEPKASEIQDKRGIFYDKGRSIDITSSVSGTFETEGWSVFKFSNLNSNGQPGKNTLWVDTDFPMFRLGDIYLMYAEAVARGGEGSKASAVEYINALRKRAYGDDKHNISENWLEENNFRNLLDERGRELYWEGIRRTDLVRFDLLTSGSYTWDFKGGINTGVGVNKRYNVYPIPVTDLTVNGNLQQNEGY
# What was measured:
# Test in all cases: glycan array binding signal (z-score within array); higher = stronger binding
# Conditions in all cases: glycan notation: IUPAC condensed, linker removed
# [1] = target: Fuc(a1-2)Gal(b1-4)GlcNAc(b1-3)Gal(b1-4)GlcNAc(b1-3)Gal(b1-4)GlcNAc
# Summary of the method: (§1)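 Columns mapping to the same glycan were averaged after glycan names were converted to IUPAC-condensed notation. The data come from 3228 arrays in the Consortium for Functional Glycomics database, limited to those with an available protein sequence. Binding is reported as a within-array Z-score averaged across arrays of one protein sequence and across linkers.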
# [2] = target: Fuc(a1-2)Gal(b1-4)GlcNAc(b1-3)GalNAc
# Summary of the method: as §1
# [3] = target: Fuc(a1-2)Gal(b1-4)GlcNAc(b1-3)[Fuc(a1-2)Gal(b1-4)GlcNAc(b1-6)]GalNAc
# Summary of the method: as §1
# [4] = target: Fuc(a1-2)Gal(b1-4)GlcNAc(b1-3)[Fuc(a1-3)[Gal(b1-4)]GlcNAc(b1-6)]Gal(b1-4)Glc
# Summary of the method: as §1
# [5] = target: Fuc(a1-2)Gal(b1-4)GlcNAc(b1-6)GalNAc
# Summary of the method: as §1
# [6] = target: Fuc(a1-2)Gal(b1-4)GlcNAc6S
# Summary of the method: as §1
# [7] = target: Fuc(a1-2)Gal(b1-4)[Fuc(a1-3)]GlcNAc
# Summary of the method: as §1
# [8] = target: Fuc(a1-2)Gal(b1-4)[Fuc(a1-3)]GlcNAc(b1-2)Man(a1-3)[Fuc(a1-2)Gal(b1-4)[Fuc(a1-3)]GlcNAc(b1-2)Man(a1-6)]Man(b1-4)GlcNAc(b1-4)[Fuc(a1-6)]GlcNAc
# Summary of the method: as §1
# [9] = target: Fuc(a1-2)Gal(b1-4)[Fuc(a1-3)]GlcNAc(b1-2)[Fuc(a1-2)Gal(b1-4)[Fuc(a1-3)]GlcNAc(b1-4)]Man(a1-3)[Fuc(a1-2)Gal(b1-4)[Fuc(a1-3)]GlcNAc(b1-2)Man(a1-6)]Man(b1-4)GlcNAc(b1-4)GlcNAc
# Summary of the method: as §1
# [10] = target: Fuc(a1-2)Gal(b1-4)[Fuc(a1-3)]GlcNAc(b1-3)Gal(b1-4)[Fuc(a1-3)]GlcNAc
# Summary of the method: as §1
# [11] = target: Fuc(a1-2)Gal(b1-4)[Fuc(a1-3)]GlcNAc(b1-3)Gal(b1-4)[Fuc(a1-3)]GlcNAc(b1-3)Gal(b1-4)[Fuc(a1-3)]GlcNAc
# Summary of the method: as §1
# [12] = target: Fuc(a1-2)Gal(b1-4)[Fuc(a1-3)]GlcNAc(b1-3)GalNAc
# Summary of the method: as §1
# [13] = target: Fuc(a1-2)Gal(b1-4)[Fuc(a1-3)]GlcNAc(b1-3)[Neu5Ac(a2-6)Gal(b1-4)GlcNAc(b1-6)]Gal(b1-4)Glc
# Summary of the method: as §1
# [14] = target: Fuc(a1-2)Gal3S(b1-4)GlcNAc
# Summary of the method: as §1
# [15] = target: Fuc(a1-2)Gal6S(b1-3)GlcNAc
# Summary of the method: as §1
# [16] = target: Fuc(a1-2)Gal6S(b1-3)GlcNAc6S
# Summary of the method: as §1
# Fuc(a1-2)Gal6S(b1-4)Glc = target: Fuc(a1-2)Gal6S(b1-4)Glc
# Summary of the method: as §1
# [17] = target: Fuc(a1-2)Gal6S(b1-4)Glc6S
# Summary of the method: as §1
# Fuc(a1-2)[Gal(a1-3)]Gal = target: Fuc(a1-2)[Gal(a1-3)]Gal
# Summary of the method: as §1
# [18] = target: Fuc(a1-2)[Gal(a1-3)]Gal(b1-3)GalNAc
# Summary of the method: as §1
# [19] = target: Fuc(a1-2)[Gal(a1-3)]Gal(b1-3)GalNAc(b1-3)Gal(a1-4)Gal(b1-4)Glc
# Summary of the method: as §1
# [20] = target: Fuc(a1-2)[Gal(a1-3)]Gal(b1-3)GlcNAc
# Summary of the method: as §1
# [21] = target: Fuc(a1-2)[Gal(a1-3)]Gal(b1-3)GlcNAc(b1-2)Man(a1-3)[Fuc(a1-2)[Gal(a1-3)]Gal(b1-3)GlcNAc(b1-2)Man(a1-6)]Man(b1-4)GlcNAc(b1-4)GlcNAc
# Summary of the method: as §1
# [22] = target: Fuc(a1-2)[Gal(a1-3)]Gal(b1-3)GlcNAc(b1-2)Man(a1-3)[Fuc(a1-2)[Gal(a1-3)]Gal(b1-3)GlcNAc(b1-2)Man(a1-6)]Man(b1-4)GlcNAc(b1-4)[Fuc(a1-6)]GlcNAc
# Summary of the method: as §1
# [23] = target: Fuc(a1-2)[Gal(a1-3)]Gal(b1-3)GlcNAc(b1-3)GalNAc
# Summary of the method: as §1
# [24] = target: Fuc(a1-2)[Gal(a1-3)]Gal(b1-3)GlcNAc(b1-6)GalNAc
# Summary of the method: as §1
# [25] = target: Fuc(a1-2)[Gal(a1-3)]Gal(b1-4)Glc
# Summary of the method: as §1
# [26] = target: Fuc(a1-2)[Gal(a1-3)]Gal(b1-4)GlcNAc
# Summary of the method: as §1
# [27] = target: Fuc(a1-2)[Gal(a1-3)]Gal(b1-4)GlcNAc(b1-2)Man
# Summary of the method: as §1
# [28] = target: Fuc(a1-2)[Gal(a1-3)]Gal(b1-4)GlcNAc(b1-2)Man(a1-3)[Fuc(a1-2)[Gal(a1-3)]Gal(b1-4)GlcNAc(b1-2)Man(a1-6)]Man(b1-4)GlcNAc(b1-4)GlcNAc
# Summary of the method: as §1
binder,measurement,setting,value
B1,glycan array binding signal (z-score),[1],0.17
same,glycan array binding signal (z-score),[2],0.545
same,glycan array binding signal (z-score),[3],0.15
same,glycan array binding signal (z-score),[4],-0.598
same,glycan array binding signal (z-score),[5],-0.204
same,glycan array binding signal (z-score),[6],0.265
same,glycan array binding signal (z-score),[7],-0.295
same,glycan array binding signal (z-score),[8],0.566
same,glycan array binding signal (z-score),[9],-0.263
same,glycan array binding signal (z-score),[10],0.27
same,glycan array binding signal (z-score),[11],0.338
same,glycan array binding signal (z-score),[12],-0.016
same,glycan array binding signal (z-score),[13],-0.086
same,glycan array binding signal (z-score),[14],0.037
same,glycan array binding signal (z-score),[15],-0.431
same,glycan array binding signal (z-score),[16],1.23
same,glycan array binding signal (z-score),Fuc(a1-2)Gal6S(b1-4)Glc,-0.362
same,glycan array binding signal (z-score),[17],1.22
same,glycan array binding signal (z-score),Fuc(a1-2)[Gal(a1-3)]Gal,1.72
same,glycan array binding signal (z-score),[18],0.614
same,glycan array binding signal (z-score),[19],-0.624
same,glycan array binding signal (z-score),[20],-0.648
same,glycan array binding signal (z-score),[21],0.16
same,glycan array binding signal (z-score),[22],-0.126
same,glycan array binding signal (z-score),[23],-0.92
same,glycan array binding signal (z-score),[24],1.21
same,glycan array binding signal (z-score),[25],0.261
same,glycan array binding signal (z-score),[26],0.791
same,glycan array binding signal (z-score),[27],-0.79
same,glycan array binding signal (z-score),[28],0.006

# Shown tab-delimited: entries from further up.
binder	measurement	setting	value
B1	glycan array binding signal (z-score)	[8]	0.566
same	glycan array binding signal (z-score)	[9]	-0.263
